For assay [1], the target named is ApoEr2 (TP320903, OnGene) (UniProt Q14114). Put plainly: ELISA on coated receptor. For orientation: ELISA stands for enzyme-linked immunosorbent assay.
In a further assay the target is VLDLr (8444-VL, R&D) (UniProt P98155). Briefly: ELISA on coated receptor.

Amino acid sequences for entries named in this document (tags omitted). Residues count along the entry.
UniProt Q14114, residues 33-963: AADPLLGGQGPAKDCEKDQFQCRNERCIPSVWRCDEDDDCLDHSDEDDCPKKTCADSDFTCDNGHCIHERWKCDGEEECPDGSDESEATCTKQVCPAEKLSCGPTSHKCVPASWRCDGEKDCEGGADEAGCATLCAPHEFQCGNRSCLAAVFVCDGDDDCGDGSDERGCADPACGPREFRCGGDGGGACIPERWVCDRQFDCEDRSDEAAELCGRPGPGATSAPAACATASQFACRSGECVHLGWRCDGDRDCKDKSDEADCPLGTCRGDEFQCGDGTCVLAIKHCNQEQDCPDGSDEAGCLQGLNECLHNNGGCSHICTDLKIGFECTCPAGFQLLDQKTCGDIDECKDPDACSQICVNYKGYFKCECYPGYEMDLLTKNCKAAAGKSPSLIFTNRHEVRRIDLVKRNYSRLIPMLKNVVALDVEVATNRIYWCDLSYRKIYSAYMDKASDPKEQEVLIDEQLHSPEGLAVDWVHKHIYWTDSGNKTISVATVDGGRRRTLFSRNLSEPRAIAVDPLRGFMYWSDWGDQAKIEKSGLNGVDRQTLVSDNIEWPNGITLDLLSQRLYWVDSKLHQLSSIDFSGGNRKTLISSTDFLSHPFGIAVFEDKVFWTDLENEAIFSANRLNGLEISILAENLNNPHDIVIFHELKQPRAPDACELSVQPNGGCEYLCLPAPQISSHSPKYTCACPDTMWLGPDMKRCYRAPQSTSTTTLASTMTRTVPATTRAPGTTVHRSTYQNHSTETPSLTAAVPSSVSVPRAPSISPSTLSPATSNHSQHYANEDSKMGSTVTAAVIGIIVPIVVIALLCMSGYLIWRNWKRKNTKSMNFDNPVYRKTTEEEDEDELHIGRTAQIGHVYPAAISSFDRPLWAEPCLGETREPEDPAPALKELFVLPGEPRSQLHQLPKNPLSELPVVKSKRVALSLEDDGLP
UniProt Q60841, residues 27-3461: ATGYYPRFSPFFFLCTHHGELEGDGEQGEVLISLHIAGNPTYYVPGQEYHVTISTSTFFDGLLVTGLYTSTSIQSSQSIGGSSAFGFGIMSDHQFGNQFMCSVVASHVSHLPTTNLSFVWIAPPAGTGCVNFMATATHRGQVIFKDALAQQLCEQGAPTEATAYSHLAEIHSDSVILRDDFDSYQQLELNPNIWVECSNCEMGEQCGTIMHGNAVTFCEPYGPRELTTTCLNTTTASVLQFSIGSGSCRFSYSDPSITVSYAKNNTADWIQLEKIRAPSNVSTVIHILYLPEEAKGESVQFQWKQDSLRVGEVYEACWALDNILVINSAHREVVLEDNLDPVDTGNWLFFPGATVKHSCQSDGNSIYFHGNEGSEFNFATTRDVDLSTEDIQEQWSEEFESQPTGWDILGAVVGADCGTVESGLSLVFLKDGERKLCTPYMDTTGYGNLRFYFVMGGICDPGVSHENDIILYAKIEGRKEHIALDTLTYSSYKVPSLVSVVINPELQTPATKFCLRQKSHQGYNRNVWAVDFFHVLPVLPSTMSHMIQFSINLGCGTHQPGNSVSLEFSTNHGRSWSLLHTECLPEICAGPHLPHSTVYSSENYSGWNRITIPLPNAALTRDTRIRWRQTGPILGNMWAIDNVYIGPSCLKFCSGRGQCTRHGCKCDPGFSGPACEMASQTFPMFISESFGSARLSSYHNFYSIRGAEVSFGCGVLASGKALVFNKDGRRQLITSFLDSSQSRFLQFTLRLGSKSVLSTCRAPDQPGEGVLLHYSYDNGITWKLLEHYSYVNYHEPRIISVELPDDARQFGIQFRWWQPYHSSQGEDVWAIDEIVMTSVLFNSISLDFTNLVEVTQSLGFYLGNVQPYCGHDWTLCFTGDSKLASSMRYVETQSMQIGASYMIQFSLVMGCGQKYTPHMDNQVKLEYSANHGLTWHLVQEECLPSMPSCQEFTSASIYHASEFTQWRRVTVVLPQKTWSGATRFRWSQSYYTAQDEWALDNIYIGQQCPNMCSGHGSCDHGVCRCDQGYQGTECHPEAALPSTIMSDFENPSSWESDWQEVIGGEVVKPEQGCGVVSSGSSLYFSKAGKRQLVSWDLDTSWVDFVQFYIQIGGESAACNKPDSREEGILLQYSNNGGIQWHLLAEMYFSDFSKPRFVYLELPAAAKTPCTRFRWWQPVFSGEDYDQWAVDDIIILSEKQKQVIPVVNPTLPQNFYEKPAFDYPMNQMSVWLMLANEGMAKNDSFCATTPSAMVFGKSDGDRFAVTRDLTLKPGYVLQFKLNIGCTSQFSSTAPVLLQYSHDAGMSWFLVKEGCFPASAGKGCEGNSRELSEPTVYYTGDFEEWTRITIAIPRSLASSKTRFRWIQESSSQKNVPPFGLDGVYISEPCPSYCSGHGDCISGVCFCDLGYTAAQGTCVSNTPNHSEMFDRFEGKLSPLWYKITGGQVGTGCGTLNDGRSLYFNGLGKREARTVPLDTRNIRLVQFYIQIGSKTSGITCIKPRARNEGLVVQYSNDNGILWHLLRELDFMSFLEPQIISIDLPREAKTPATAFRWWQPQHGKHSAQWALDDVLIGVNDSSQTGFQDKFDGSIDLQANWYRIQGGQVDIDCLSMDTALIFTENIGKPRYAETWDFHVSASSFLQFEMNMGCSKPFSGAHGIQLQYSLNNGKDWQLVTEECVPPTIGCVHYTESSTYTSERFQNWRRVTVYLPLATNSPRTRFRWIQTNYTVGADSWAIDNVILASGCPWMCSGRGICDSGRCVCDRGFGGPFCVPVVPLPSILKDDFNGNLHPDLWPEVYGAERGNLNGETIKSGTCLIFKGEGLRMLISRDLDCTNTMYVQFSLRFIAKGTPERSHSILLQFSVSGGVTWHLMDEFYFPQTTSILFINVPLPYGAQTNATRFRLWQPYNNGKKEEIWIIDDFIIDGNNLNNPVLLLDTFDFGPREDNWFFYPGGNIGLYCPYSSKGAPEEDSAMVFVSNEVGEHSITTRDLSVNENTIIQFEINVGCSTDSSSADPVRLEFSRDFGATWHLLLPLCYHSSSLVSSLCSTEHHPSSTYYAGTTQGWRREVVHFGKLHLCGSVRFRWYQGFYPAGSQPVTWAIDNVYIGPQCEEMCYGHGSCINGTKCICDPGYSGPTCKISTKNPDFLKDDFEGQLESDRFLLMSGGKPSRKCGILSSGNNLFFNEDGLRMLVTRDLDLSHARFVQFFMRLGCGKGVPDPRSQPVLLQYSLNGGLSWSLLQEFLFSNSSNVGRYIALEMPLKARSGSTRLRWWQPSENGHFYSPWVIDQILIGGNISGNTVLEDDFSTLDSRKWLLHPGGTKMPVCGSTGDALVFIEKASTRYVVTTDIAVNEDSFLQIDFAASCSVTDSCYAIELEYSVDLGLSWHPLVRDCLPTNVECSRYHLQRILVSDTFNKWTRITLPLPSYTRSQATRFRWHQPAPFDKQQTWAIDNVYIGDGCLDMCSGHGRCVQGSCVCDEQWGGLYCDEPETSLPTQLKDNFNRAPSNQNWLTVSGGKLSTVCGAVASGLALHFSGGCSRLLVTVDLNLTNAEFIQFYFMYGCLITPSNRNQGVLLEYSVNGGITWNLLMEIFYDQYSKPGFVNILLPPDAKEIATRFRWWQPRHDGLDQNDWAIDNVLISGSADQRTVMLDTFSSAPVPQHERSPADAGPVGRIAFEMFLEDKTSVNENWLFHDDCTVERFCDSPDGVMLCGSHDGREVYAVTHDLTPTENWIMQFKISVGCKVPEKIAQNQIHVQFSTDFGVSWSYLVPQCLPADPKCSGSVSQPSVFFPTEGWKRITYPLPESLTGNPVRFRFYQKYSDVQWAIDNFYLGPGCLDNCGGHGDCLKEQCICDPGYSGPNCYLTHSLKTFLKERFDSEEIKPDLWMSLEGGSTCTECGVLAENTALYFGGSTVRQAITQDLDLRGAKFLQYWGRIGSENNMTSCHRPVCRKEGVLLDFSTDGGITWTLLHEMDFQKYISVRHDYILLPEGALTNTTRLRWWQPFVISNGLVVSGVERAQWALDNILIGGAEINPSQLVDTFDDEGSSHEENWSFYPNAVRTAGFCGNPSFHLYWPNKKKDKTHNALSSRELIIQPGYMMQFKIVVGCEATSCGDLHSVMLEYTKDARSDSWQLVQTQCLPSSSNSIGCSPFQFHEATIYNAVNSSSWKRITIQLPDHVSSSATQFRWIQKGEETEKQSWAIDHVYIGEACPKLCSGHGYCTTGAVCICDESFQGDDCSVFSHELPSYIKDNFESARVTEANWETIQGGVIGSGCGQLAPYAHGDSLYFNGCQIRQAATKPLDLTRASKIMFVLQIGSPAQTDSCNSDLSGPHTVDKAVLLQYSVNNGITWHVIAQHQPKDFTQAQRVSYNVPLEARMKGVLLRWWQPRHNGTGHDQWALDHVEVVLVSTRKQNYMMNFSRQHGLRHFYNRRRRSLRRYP

Results are given in words; binding and its absence hold for the method and conditions named. Some entries that bind do so weakly or less than the wild type.

For “full-length murine recombinant RELN WT (from UniProt Q60841 27-3461) (ligand)”, the binding entry was “binds” in assay [1] and “binds” in the assay with VLDLr (8444-VL, R&D).
